Here are results for 1 molecule from patent publication US20170306017A1.

By UniProt entry, the sequences of proteins in these tests, tags left out. Residues count along the entry.
UniProt O43157, residues 20-2135: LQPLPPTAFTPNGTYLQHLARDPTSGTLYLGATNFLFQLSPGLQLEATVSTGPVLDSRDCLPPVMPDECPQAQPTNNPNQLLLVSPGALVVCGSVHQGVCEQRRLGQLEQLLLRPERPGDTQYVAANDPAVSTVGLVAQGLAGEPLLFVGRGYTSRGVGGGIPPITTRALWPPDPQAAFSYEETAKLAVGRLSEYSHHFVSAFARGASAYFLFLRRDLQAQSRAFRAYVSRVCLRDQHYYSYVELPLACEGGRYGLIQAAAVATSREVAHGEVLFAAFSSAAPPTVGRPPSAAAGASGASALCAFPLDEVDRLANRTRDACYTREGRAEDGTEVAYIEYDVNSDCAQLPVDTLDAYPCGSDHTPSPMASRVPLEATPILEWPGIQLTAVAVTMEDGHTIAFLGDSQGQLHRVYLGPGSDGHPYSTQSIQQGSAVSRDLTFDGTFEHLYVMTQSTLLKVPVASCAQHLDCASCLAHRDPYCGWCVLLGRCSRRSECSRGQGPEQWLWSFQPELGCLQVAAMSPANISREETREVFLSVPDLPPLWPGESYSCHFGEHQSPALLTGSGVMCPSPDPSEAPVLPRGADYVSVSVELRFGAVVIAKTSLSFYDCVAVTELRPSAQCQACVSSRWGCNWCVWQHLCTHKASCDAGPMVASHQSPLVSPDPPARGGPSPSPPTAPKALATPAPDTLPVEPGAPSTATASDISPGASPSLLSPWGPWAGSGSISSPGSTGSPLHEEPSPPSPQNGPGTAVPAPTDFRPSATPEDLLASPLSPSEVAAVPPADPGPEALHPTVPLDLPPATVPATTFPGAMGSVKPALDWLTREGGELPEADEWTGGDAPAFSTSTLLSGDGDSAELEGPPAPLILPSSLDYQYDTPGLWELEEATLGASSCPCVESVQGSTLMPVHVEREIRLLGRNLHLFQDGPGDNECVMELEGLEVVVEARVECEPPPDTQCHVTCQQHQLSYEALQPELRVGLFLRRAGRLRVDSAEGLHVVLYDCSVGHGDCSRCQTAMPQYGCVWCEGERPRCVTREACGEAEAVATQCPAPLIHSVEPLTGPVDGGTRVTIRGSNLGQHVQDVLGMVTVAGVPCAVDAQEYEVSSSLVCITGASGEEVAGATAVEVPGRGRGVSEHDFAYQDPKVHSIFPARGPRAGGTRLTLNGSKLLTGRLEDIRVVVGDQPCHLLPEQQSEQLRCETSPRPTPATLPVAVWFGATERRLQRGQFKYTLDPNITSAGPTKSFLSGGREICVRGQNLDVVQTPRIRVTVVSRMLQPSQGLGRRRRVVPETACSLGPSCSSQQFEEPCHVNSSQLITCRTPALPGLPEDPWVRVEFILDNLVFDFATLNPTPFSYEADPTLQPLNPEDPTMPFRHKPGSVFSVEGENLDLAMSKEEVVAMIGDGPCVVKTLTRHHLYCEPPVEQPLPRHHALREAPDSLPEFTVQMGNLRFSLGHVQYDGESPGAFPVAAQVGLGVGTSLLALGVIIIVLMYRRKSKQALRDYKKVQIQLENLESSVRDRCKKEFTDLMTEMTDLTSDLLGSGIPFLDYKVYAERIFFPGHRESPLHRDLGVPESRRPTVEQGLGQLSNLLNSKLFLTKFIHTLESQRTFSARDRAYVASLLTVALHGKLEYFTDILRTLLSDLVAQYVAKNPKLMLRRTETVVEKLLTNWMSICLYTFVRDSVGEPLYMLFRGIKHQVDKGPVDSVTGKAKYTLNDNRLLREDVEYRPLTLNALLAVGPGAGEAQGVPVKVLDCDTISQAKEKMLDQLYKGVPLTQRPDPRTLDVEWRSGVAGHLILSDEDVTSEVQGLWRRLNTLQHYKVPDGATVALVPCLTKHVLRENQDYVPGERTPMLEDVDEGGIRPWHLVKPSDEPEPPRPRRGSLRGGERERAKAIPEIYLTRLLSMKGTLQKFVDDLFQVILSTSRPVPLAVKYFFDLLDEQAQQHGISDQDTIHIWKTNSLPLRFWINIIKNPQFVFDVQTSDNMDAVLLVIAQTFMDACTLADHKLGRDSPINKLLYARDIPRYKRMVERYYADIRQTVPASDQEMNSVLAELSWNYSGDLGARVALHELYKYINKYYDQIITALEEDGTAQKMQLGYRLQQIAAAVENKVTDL

Results are given in words; binding and its absence hold for the method and conditions named. Some entries that bind do so weakly or less than the wild type. Sequences can lack the tags named with a protein.

Assay [1] concerns the target Plexin B1 on the cell surface of a stable 293 cell line (293/Plexin) (UniProt O43157). The assay is described as follows: flow cytometry on 293/Plexin cells (blocking assay of FIG. 1); bound CD100-His detected with biotinylated anti-His and streptavidin-APC.
The target is the same in assay [2]. The experiment in a line: flow cytometry on 293/Plexin cells; bound CD100-His detected with biotinylated rabbit anti-His and streptavidin-APC.

B1: mouse CD100-His (the extracellular domain of mouse CD100 with a C-terminal 6X his tag) (ligand)
chain: FAPVPRLTWEHGEVGLVQFHKPGIFNYSALLMSEDKDTLYVGAREAVFAVNALNISEKQHEVYWKVSEDKKSKCAEKGKSKQTECLNYIRVLQPLSSTSLYVCGTNAFQPTCDHLNLTSFKFLGKSEDGKGRCPFDPAHSYTSVMVGGELYSGTSYNFLGSEPIISRNSSHSPLRTEYAIPWLNEPSFVFADVIQKSPDGPEGEDDKVYFFFTEVSVEYEFVFKLMIPRVARVCKGDQGGLRTLQKKWTSFLKARLICSKPDSGLVFNILQDVFVLRAPGLKEPVFYAVFTPQLNNVGLSAVCAYTLATVEAVFSRGKYMQSATVEQSHTKWVRYNGPVPTPRPGACIDSEARAANYTSSLNLPDKTLQFVKDHPLMDDSVTPIDNRPKLIKKDVNYTQIVVDRTQALDGTFYDVMFISTDRGALHKAVILTKEVHVIEETQLFRDSEPVLTLLLSSKKGRKFVYAGSNSGVVQAPLAFCEKHGSCEDCVLARDPYCAWSPAIKACVTLHQEEASSRGWIQDMSGDTSSCLDKSKESFNQHFFKHGGTAELKCFQKSNLARVVWKFQNGELKAASPKYGFVGRKHLLIFNLSDGDSGVYQCLSEERVRNKTVSQLLAKHVLEVKMVPRTPPSPTSEDAQTEGSKITSKMPVASTQGSSPPTPALWATSPRAATLPPKSSSGTSCEPKMVINTVPQLHSEKTVYLKSSDNRHHHHHH
For the molecule B1, the binding result in assay [1] and in assay [2] was “binds” in each case.
